From patent publication US20100216886A1, “POLYMORPHS OF N2-(1,1'-BIPHENYL-4-YLCARBONYL)-N1-[2-(4-FLUOROPHENYL)-1,1-DIMETHYLETHYL]-L-ALPHA-GLUTAMINE” (Wyeth, priority 2006, published 2010) come the findings set out here.

A short description of this data set: in vitro. The following applies: human, Caco-2, pH 7.4.

Broadly, the Papp A→B is the apparent permeability from the apical to the basolateral side of a cell layer. A low value points to poor permeation. The Papp B→A is how fast a substance crosses the layer from the basolateral side. Consider `CC(C)NCC(O)COc1ccc(CC(N)=O)cc1` (centres unmarked) [Atenolol], for which the Papp A→B was determined as 1.3 ×10⁻⁶ cm/s and the Papp B→A stood at 1.05 ×10⁻⁶ cm/s.
